Assay: general procedure: solution-phase peptide synthesis; DEPC; HATU
Conditions: conjugation step, overall, trifluoroacetate salt

mc-Phe-Lys-MMAE drug-linker (10.4)
conjugation yield: 32% overall

Source: patent US20050123536A1 (priority 2001, published 2005)
